Laboratory results reported in patent US20090181917A1.
Results are given in words; binding and its absence hold for the method and conditions named. Binding seen in cells or lysates may run through a third protein. Some entries that bind do so weakly or less than the wild type.

T1: menin expressed in and purified from E. coli (Homo sapiens (Human)) (UniProt O00255)
T1 sequence: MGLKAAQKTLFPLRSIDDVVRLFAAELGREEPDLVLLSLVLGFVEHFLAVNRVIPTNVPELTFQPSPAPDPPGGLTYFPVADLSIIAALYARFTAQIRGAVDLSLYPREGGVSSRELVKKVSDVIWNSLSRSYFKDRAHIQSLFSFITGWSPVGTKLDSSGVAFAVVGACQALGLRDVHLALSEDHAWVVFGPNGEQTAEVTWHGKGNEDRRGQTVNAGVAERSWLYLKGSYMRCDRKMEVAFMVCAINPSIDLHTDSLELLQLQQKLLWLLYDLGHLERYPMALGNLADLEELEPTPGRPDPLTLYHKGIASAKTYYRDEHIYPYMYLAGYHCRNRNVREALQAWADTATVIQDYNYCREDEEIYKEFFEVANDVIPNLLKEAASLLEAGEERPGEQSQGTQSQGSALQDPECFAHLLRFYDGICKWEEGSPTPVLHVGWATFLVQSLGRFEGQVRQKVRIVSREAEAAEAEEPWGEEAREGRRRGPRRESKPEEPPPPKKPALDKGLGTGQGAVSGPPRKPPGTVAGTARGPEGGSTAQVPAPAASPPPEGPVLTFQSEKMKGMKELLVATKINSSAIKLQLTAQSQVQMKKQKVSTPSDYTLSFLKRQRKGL


Target: T1, menin expressed in and purified from E. coli (Homo sapiens (Human))
Assay: pull-down on streptavidin-agarose beads loaded with biotinylated peptide, anti-menin Western blot

Row | binding | Binder
1 | binds | MAHSCRWRFPGSGSCRWRFP (biotinylated (position not given)) [biotinylated synthetic peptide … (SEQ ID No. 7)]
2 | binds | MAHSCRWRFP (biotinylated (position not given)) [biotinylated synthetic peptide comprising … (SEQ ID No. 6)]
